From doi:10.1101/2024.05.17.594698

Molecular target: T1, sestrin 2 (endogenous) (human (endogenous in CD4+ T cells)) (UniProt P58004)
T1 sequence: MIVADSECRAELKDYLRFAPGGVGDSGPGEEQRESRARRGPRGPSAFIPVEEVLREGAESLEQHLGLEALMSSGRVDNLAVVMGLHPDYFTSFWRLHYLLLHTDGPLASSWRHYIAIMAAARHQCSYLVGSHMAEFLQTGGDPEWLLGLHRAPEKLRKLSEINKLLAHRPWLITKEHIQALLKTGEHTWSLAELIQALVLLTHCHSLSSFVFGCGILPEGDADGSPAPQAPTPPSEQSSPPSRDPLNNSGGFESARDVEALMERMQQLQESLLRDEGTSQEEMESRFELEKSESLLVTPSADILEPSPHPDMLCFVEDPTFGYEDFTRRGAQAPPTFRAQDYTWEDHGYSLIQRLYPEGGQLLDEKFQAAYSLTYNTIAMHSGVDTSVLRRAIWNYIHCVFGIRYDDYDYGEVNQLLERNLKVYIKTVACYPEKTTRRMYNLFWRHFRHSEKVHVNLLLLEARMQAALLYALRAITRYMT
Assay: co-IP

Question: “p38 MAPK (human (endogenous in CD4+ T cells)) (enzyme)” was tested. Which binding did it give?
Answer: binds

Question: Which binding does the source give for “ERK MAPK (human (endogenous in CD4+ T cells)) (enzyme)” here?
Answer: binds

Question: For “JNK MAPK (human (endogenous in CD4+ T cells)) (enzyme)”, which binding is on record?
Answer: binds

No constants are given. Whether binding was seen depends on the method and setting. Binding seen in cells or lysates may run through a third protein. A result given as binding can be weak or reduced; the word gives no strength.
